Measured values as given in PubChem BioAssay AID1671190 (National Center for Advancing Translational Sciences (NCATS), 2021).
About 6,100 (1.1%) of roughly 580,000 compounds were called active. The inconclusive results got no clear call from the source; some entries with a clear call stand among them for comparison. Calls follow the shape of the dose curve; as a rule, active = well fitted inhibition curve with a large enough effect; inconclusive = small, poorly fitted or top-dose-only effect, or another doubt; inactive = no such curve, though single readings can be large or run the other way. Potencies of inconclusive entries are doubtful fits and often do not repeat.
Potency is read from the fitted curve at half-maximal effect.

By UniProt entry, the sequences of proteins in these tests, tags left out. Where a name states a change or a piece, a line headed by the entry shows the natural chain unless it says otherwise.
UniProt P18054: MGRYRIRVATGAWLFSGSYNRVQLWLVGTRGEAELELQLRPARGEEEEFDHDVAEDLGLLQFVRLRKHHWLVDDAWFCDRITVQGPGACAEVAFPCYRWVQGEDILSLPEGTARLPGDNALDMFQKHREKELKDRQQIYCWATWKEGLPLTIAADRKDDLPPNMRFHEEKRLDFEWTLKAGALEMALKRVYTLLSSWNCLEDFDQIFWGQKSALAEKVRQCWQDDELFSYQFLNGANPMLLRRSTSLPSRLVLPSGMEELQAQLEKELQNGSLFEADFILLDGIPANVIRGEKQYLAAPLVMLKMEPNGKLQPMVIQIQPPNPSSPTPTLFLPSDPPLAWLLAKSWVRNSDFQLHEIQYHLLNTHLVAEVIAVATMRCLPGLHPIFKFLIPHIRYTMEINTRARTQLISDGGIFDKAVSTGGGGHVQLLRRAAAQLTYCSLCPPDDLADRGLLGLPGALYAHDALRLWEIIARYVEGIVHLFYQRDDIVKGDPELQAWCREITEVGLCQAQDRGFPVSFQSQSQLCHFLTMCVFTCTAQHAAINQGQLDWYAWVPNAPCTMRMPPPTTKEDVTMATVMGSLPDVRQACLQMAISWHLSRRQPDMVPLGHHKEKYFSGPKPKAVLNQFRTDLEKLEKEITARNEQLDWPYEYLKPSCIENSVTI

Each molecule was assayed against Polyunsaturated fatty acid lipoxygenase ALOX12 (Homo sapiens) (UniProt P18054) (assay: Primary qHTS assay for inhibitors of human arachidonate 12S-lipoxygenase (ALOX12): Round 2). Details: purified 12hLO, xylenol orange hydroperoxide absorbance; series mostly up to 108 µM.
Method in brief: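 Purified human 12hLO (150 nM final) in 25 mM Hepes, 0.01% Triton X-100, pH 7.0 was preincubated 15 min at room temperature with compound. Then 40 uM arachidonic acid was added, 30 min. Hydroperoxide was read by Fe-XO absorbance ratio 573/405 nm.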
For `NCC(c1ccccc1)c1ccccc1`, the Potency was “inactive”. `O=C(Nc1ccc(Cl)cc1)N1CCC(N2CC3CCCN3C2=O)CC1` (configuration not stated) was tested, and the Potency was “inactive”. `O=C(CCl)Nc1ccc(N2CCCCCC2)cc1` was tested, and the Potency was inconclusive: 39.8 µM [inhibitor, partial curve]. In the case of `CN(C)C(=S)NC(=S)Nc1ccc2ccccc2c1`, the Potency is reported as active: 35.5 µM. For `CCN1CCC(N(C(=O)c2cn(C)c3ccccc23)C2CC2)CC1`, the Potency was inconclusive: 44.7 µM [inhibitor, partial curve, poor fit]. For `Cc1ccccc1Oc1ccc2c(c1)[C@@H]1C[C@H](N(C)C(=O)c3cccnc3)[C@H]([C@H](C)O)C(=O)N1CC2`, the Potency was “inactive”. In the case of `COCc1nc(CNC(=O)c2sc3cccc(F)c3c2Cl)no1`, the Potency is reported as “inactive”. With `C[C@@H](NC(=O)[C@@H]1Cc2ccccc2CN1)C(=O)NCC1CCCO1` (some centres not stated) the Potency was “inactive”. With `O=C(CC1CCCC1)NCc1cccnc1` the Potency was “inactive”. For `O=C(NC1CCCC1)c1cc(-c2ccncc2)nc2c(Cl)cccc12`, the Potency was inconclusive: 0.447 µM [inhibitor, full curve, poor fit]. In the case of `Cc1cc2nc(C(=O)Nc3ccc(C(C)C)cc3)c(=O)n(C)c2cc1C`, the Potency is reported as “inactive”. In the case of `O=C(/C=C/c1ccc(COc2ccc(F)cc2F)o1)c1cccc([N+](=O)[O-])c1`, the Potency is reported as inconclusive: 39.8 µM [inhibitor, partial curve, poor fit]. For `COc1cccc2sc(N(CCCN(C)C)C(=O)c3ccc(S(=O)(=O)N4CCc5ccccc5C4)cc3)nc12`, the Potency was inconclusive: 39.8 µM [inhibitor, single point]. For `Fc1ccc(/C=N/Nc2ccc(F)cc2)cc1`, the Potency was active: 2.24 µM. For `Cn1c(SCC(=O)c2ccc3c(c2)OCCO3)nnc1C(F)(F)F`, the Potency was “inactive”. With `Cn1ncc2c(=S)nc(Cl)[nH]c21` the Potency was active: 7.08 µM. `O=C(NCCc1ccccc1)c1c[nH]c2ccc(S(=O)(=O)Nc3ccc(F)cc3F)cc2c1=O` was tested, and the Potency was inconclusive: 50.1 µM [inhibitor, full curve, poor fit]. With `CCN1CCc2c(C#N)c(N3CCCCC3)nc(NCc3ccccc3)c2C1` the Potency was inconclusive: 31.6 µM [inhibitor, single point]. In the case of `CCOc1ccc(-c2cc(C(=O)OC)c3ccccc3n2)c(OCC)c1`, the Potency is reported as inconclusive: 39.8 µM [inhibitor, partial curve, poor fit]. For `CC(=O)N1CCc2c(c3ccccc3n2C)C1`, the Potency was inconclusive: 17.8 µM [inhibitor, full curve]. In the case of `COc1cccc(-c2nc(NCc3ccccc3)c3ccccc3n2)c1`, the Potency is reported as inconclusive: 22.4 µM [inhibitor, partial curve, poor fit]. In the case of `Cc1ccccc1-c1nnc(SCc2ccc(F)cc2)o1`, the Potency is reported as inconclusive: 44.7 µM [inhibitor, full curve, poor fit]. For `CCOc1ccccc1C(=O)N1CCC(Oc2ccc(C(=O)N(C)C)cn2)CC1`, the Potency was “inactive”. For `CC(C)C(c1nnnn1Cc1ccccc1)N1C(=O)C(=O)c2ccccc21` (configuration not stated), the Potency was inconclusive: 17.8 µM [inhibitor, partial curve, poor fit]. For `Cc1ccc(C)c(S(=O)(=O)NCc2ccc3c(c2)OCO3)c1`, the Potency was inconclusive: 100 µM [inhibitor, partial curve, poor fit]. With `COc1ccc(C(=O)CC2(O)C(=O)N(Cc3ccccc3)c3ccc(Br)cc32)cc1` (configuration not stated) the Potency was “inactive”. For `COc1nccnc1NS(=O)(=O)c1ccc(NC(=S)NC(=O)/C=C/c2ccc(F)cc2)cc1`, the Potency was active: 12.6 µM. `O=C1CCC2(CC1)NC(=O)N(c1ccccc1)N2` was tested, and the Potency was inconclusive: 44.7 µM [inhibitor, partial curve, poor fit]. `CCC1Nc2ncnc(N3CCc4ccccc4C3)c2N(Cc2ccc(Cl)cc2)C1=O` (configuration not stated) was tested, and the Potency was inconclusive: 44.7 µM [inhibitor, partial curve, poor fit]. In the case of `CCC/C=C/c1ccc(CN2C(CC(C)C)C(=O)N(Cc3cn(CCC4OCCO4)nn3)CCS2(=O)=O)cc1` (configuration not stated), the Potency is reported as inconclusive: 126 µM [inhibitor, partial curve, poor fit]. In the case of `CSc1ccc(OC2(C)CCN(Cc3ccc(C(C)C)cc3)C2)cc1` (configuration not stated), the Potency is reported as inconclusive: 70.8 µM [inhibitor, partial curve, poor fit]. In the case of `CC(C(=O)NC(=O)NC1CCCCC1)n1cnc2c1c(=O)n(C)c(=O)n2C` (configuration not stated), the Potency is reported as “inactive”. With `CC(=O)N1CCN(C(=O)CCc2nc3ccccc3c(=O)[nH]2)CC1` the Potency was “inactive”. In the case of `CCOc1ccccc1C(=O)NCC(=O)NNC(=O)CN(C)S(=O)(=O)c1ccc(Cl)cc1`, the Potency is reported as “inactive”. In the case of `Fc1ccccc1-c1noc(-c2nc(-c3ccc4c(c3)OCO4)no2)n1`, the Potency is reported as inconclusive: 8.91 µM [inhibitor, full curve, poor fit]. In the case of `O=C1CCc2cc(C(=O)NCCc3ccc4c(c3)OCO4)ccc2N1`, the Potency is reported as “inactive”. In the case of `O=C(N1CC(Oc2ccc(-c3nc(-c4ccccc4)no3)cc2)C1)C1(c2ccccc2)CC1`, the Potency is reported as “inactive”. In the case of `Cc1ccc(NS(=O)(=O)c2ccccc2)c(=O)n1CC(=O)NC(C)c1ccccc1` (configuration not stated), the Potency is reported as inconclusive: 28.2 µM [inhibitor, single point]. For `Oc1ccc(N2CCN(Cc3nc4ccccc4[nH]3)CC2)cc1`, the Potency was inconclusive: 50.1 µM [inhibitor, partial curve, poor fit]. With `Cc1ccc(S(=O)(=O)NCC(=O)N(CC(=O)NCC2CCCO2)C2CCCC2)cc1` (configuration not stated) the Potency was inconclusive: 44.7 µM [inhibitor, partial curve]. For `CCCC1C(c2ccc(Cl)cc2)NC(c2ccc(Cl)cc2)C(C)C1(O)CCC` (configuration not stated), the Potency was inconclusive: 50.1 µM [inhibitor, partial curve, poor fit]. For `Cc1[nH][nH]c(=O)c1C(c1ccc(O)c([N+](=O)[O-])c1)c1c(C)[nH][nH]c1=O`, the Potency was “inactive”. For `CCS(=O)(=O)N1CCC(N2C(=O)[C@H](OCCOC)[C@@H]2c2ccncc2)CC1`, the Potency was “inactive”. `Cc1ccnc(NC(=O)C2CCN(S(=O)(=O)c3ccc(C)c(C)c3)CC2)c1` was tested, and the Potency was “inactive”. In the case of `CC(C)c1ccc(C(=O)NCc2cccc(CNC(=O)c3ccc(C(C)C)cc3)c2)cc1`, the Potency is reported as inconclusive: 56.2 µM [inhibitor, single point]. In the case of `CN(C)CCOC1c2ccccc2CSc2ccccc21` (configuration not stated), the Potency is reported as inconclusive: 100 µM [inhibitor, single point]. For `Cc1cc(C)nc(Nc2ncc(O)n2-c2ccccc2)n1`, the Potency was inconclusive: 17.8 µM [inhibitor, partial curve, poor fit]. For `Cc1ccc(-c2cnc(-c3ccncc3)o2)cc1`, the Potency was “inactive”. With `O=C(Oc1ccc2c(=O)c(Oc3ccccc3Br)coc2c1)c1cccs1` the Potency was “inactive”. With `O=C(C1CCOCC1)N1CCC(N2C(=O)C(O)C23CCCCC3)CC1` (configuration not stated) the Potency was “inactive”. With `S=C(NCc1ccco1)NC1CCCc2ccccc21` (configuration not stated) the Potency was inconclusive: 44.7 µM [inhibitor, partial curve, poor fit]. With `Cc1cccc(NC(=O)c2ccc3c(c2)NC(=O)C2CCCN32)c1` (configuration not stated) the Potency was inconclusive: 25.1 µM [inhibitor, partial curve]. With `COCCn1c(=O)c(-c2cccs2)nc2cnc(OC)nc21` the Potency was inconclusive: 35.5 µM [inhibitor, partial curve, poor fit]. For `CCC1(C(=O)OC)NC(c2ccco2)C2C(=O)N(c3ccccc3)C(=O)C21` (configuration not stated), the Potency was “inactive”. `CCN(CC(=O)NCc1cccs1)C(=O)c1ccc(Cl)c(Cl)c1` was tested, and the Potency was inconclusive: 79.4 µM [inhibitor, partial curve, poor fit]. In the case of `O=c1oc2ccc(Cl)cc2cc1S(=O)(=O)N1CCCC1`, the Potency is reported as “inactive”. For `Cc1nn(Cc2ccccc2)c(C)c1CNS(=O)(=O)c1ccccc1`, the Potency was “inactive”. For `CC(C)Cn1c(N)c(C(=O)COC(=O)c2cccc(Cl)c2)c(=O)n(C)c1=O`, the Potency was inconclusive: 89.1 µM [inhibitor, single point]. In the case of `COc1ccc(C=CC(=O)c2ccc(OC)c(OC)c2O)cc1OC`, the Potency is reported as “inactive”. `COc1ccccc1CNC(=O)c1cc(C(C)C)nc2ccccc12` was tested, and the Potency was “inactive”. `Cc1ccc(-n2ncc3c(SCc4cccnc4)ncnc32)c(C)c1` was tested, and the Potency was “inactive”. In the case of `CC(=O)c1ccc(NC(=O)[C@H](C(C)C)n2nnc3ccccc3c2=O)cc1`, the Potency is reported as inconclusive: 141 µM [inhibitor, partial curve, poor fit]. For `Cc1ccc(-c2cc(C(=O)O)c3ccccc3n2)cc1`, the Potency was inconclusive: 39.8 µM [inhibitor, partial curve, poor fit]. For `CCCN1C(=O)Cc2ccccc2C1C(=O)NCc1cccc(OC)c1OC` (configuration not stated), the Potency was inconclusive: 2.24 µM [inhibitor, full curve, poor fit]. With `Cc1ccc(C(=O)/C=C/c2ccc(-c3cc(Cl)ccc3Cl)o2)cc1` the Potency was active: 5.01 µM. For `FC(F)(F)c1ccccc1CNCc1ccccc1Cl`, the Potency was inconclusive: 44.7 µM [inhibitor, partial curve, poor fit]. `C=CCN(CC=C)Cc1cc(=O)oc2ccc3ccccc3c12` was tested, and the Potency was inconclusive: 50.1 µM [inhibitor, partial curve, poor fit]. For `COc1ccccc1CC(=O)N1CC[C@@H]2NC(=O)[C@H]3C[C@H](NC(=O)C4CC4)CN3C(=O)[C@H]21`, the Potency was “inactive”. `CCc1ccccc1NC(=O)CCS(=O)(=O)c1ccc(OC)cc1` was tested, and the Potency was inconclusive: 35.5 µM [inhibitor, partial curve, poor fit]. With `COc1ccc(C2Nc3ccccc3C(=O)N2NS(C)(=O)=O)c(OC)c1` (configuration not stated) the Potency was “inactive”. For `NC(=O)CC(NC(=O)Cc1ccc(Cl)cc1)c1ccc(NC2CCN(Cc3ccccc3)CC2)c([N+](=O)[O-])c1` (configuration not stated), the Potency was inconclusive: 70.8 µM [inhibitor, partial curve, poor fit]. In the case of `O=C1C2C3CC(C2C(=O)N1c1cccc(Cl)c1)[C@H](O)C3O` (some centres not stated), the Potency is reported as inconclusive: 112 µM [inhibitor, single point].
